Source: EP4570818A1
No constants are given. Whether binding was seen depends on the method and setting. Some entries that bind do so weakly or less than the wild type.

The chains behind the UniProt entries cited, without tags or fusion partners. Residues count along the entry.
UniProt P05067, residues 672-713: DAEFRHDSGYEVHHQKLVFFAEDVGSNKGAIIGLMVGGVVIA

Target: Aβo*3F (Aβ oligomer specifically bound by the antibody 3F), prepared in vitro (UniProt P05067)
Assay: ELISA

binding: binds
B1: single-chain antibody 7B (scFv)
scFv: MAEVQLLESGGGLVQPGGSLRLSCAASGFTFSSYAMSWVRQAPGKGLEWVSGISNLGLTTGYADSVKGRFTISRDNSKNTLYLQMNSLRAEDTAVYYCAKTTSRFDYWGQGTLVTVSSGGGGSGGGGSGGGGSTDIQMTQSPSSLSASVGDRVTITCRASQSISSYLNWYQQKPGKAPKLLIYKASYLQSGVPSRFSGSGSGTDFTLTISSLQPEDFATYYCQQMRRKPVTFGQGTKVEIKR
